{"source": "patent US4748154A", "about": "(Takeda Chemical Industries, Ltd., priority 1985, dated 1988)", "data": [{"assay": "general procedure: solution-phase peptide synthesis; DCC/HOBt; DCC/HONB (ONB active esters)", "conditions": "coupling step", "units": {"step yield": "%"}, "values": [{"substance": "pGlu--Asn--Cys(MBzl)--Pro--D--Lys(Z)--Gly--NH--Bu^t", "step yield": 38.4}, {"substance": "pGlu--Asn--Cys(MBzl)--Pro--D--Lys(Z)--NH--Et", "step yield": 56.7}, {"substance": "Boc--Asn--Cys(MBzl)--D--Pro--D--Lys(Z)--oBzl", "step yield": 69.7}, {"substance": "pGlu--Asn--Cys(MBzl)--Sar--D--Lys(Z)--OBzl", "step yield": 81.5}, {"substance": "pGlu--Asn--Cys(MBzl)--Pro--OH", "step yield": 93.0}, {"substance": "pGlu--Asn--Cys(MBzl)--Pro--D--Lys(Z)--NHBu^t", "step yield": 73.2}, {"substance": "pGlu--Asn--Cys(MBzl)--Pro--D--Lys(Z)--OBzl", "step yield": 80.8}, {"substance": "Boc--Asn--Cys(MBzl)--Sar--D--Lys(Z)--OBzl", "step yield": 95.9}, {"substance": "Boc--Asn--Cys(MBzl)--Gly--D--Lys(Z)--OBzl", "step yield": 99.2}, {"substance": "pGlu--Asn--Cys(MBzl)--Gly-D-Lys(Z)--OBzl", "step yield": 81.7}, {"substance": "pGlu--Asn--Cys(MBzl)--Pro--D--Lys(Z)--Gly--OBzl", "step yield": 66.2}, {"substance": "pGlu--Asn--Cys(MBzl)--Pro--D--Lys(Z)--Phe--OBzl", "step yield": 56.6}, {"substance": "pGlu--Asn--Cys(MBzl)--Pro--D--Lys(Z)--NH--ada", "step yield": 75.6}, {"substance": "pGlu--Asn--Cys(MBzl)--D--Pro--D--Lys(Z)--OBzl", "step yield": 64.6}, {"substance": "pGlu--Asn--Cys(MBzl)--Ala--D--Lys(Z)--OBzl", "step yield": 85.7}, {"substance": "pGlu--Asn--Cys(MBzl)--Pro--D--Lys(Z)--Gly--NHCH3", "step yield": 62.2}, {"substance": "pGlu--Asn--Cys(MBzl)--Pro--D--Lys(Z)--Leu--OBzl", "step yield": 68.1}, {"substance": "pGlu--Asn-Cys(MBzl)--Pro--D--Lys(Z)--NH2", "step yield": 66.2}]}]}
